{
  "source": "PubChem BioAssay AID493014",
  "about": "(National Center for Advancing Translational Sciences (NCATS), 2011)",
  "note": "About 170 (0.05%) of roughly 340,000 compounds were called active. The shares of active, inactive and inconclusive entries below differ from those in the screen. Calls come from the whole dose curve; as a rule, active = well fitted inhibition curve with a large enough effect in the signal ratio, with a control signal flat (not every such curve was filed as active); inconclusive = small, poorly fitted or top-dose-only effect, or effect the other way, or a change in a side signal; inactive = flat fitted curve, though single readings scatter; the % refers to the signal ratio. Potencies beside an inconclusive call are fits to weak or partial responses and may not hold up.",
  "data": [
    {"experiment": "qHTS Assay to Find Inhibitors of Chronic Active B-Cell Receptor Signaling; note: potency is the fitted concentration of half-maximal effect;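 for activity change, negative = inhibition: plate controls were basal doxycycline-induced cells for no effect and cells given 10 µM MG132 for full effect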", "conditions": "ABC-DLBCL IkBa-CBG/CBR reporter, luminescence ratio (green luciferase fused to IkBa over red control in TMD8 lymphoma cells), 4 h; activity change, negative = inhibition: at 46.1 µM (top of the series) unless noted", "summary_of_the_method": "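Concentration-response series (up to 46 uM) were applied to TMD8 dual-reporter cells for 4 h at 37C with doxycycline. Green/red ratio, after filter-overlap correction, defined %Activity; red signal alone was normalised to basal cells and zero luminescence.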", "values": [
      {"molecule": "CC1=C(C#N)C(=O)N(C2CCS(=O)(=O)C2)C(=O)/C1=C\\c1ccc(C)o1", "note": "(stereo not drawn)", "Potency": "inconclusive: 5.01 µM [rising, partial curve]"},
      {"molecule": "CCc1cccc(OCC2Cn3c(nc4c3c(=O)[nH]c(=O)n4C)O2)c1", "note": "(stereo not drawn)", "activity change, negative = inhibition": "inactive"},
      {"molecule": "COCCCNc1ncnc2c1[nH]c1ccccc12", "activity change, negative = inhibition": "inactive"},
      {"molecule": "Nc1cccc2c1C(=O)N(CCOc1ccc(F)cc1)C2=O", "activity change, negative = inhibition": "inconclusive: 6.16%"},
      {"molecule": "COc1ccc([C@H]2CC(=O)C=C(c3ccc4cc[nH]c4c3)C2)cc1", "activity change, negative = inhibition": "inactive"},
      {"molecule": "CCOC(=O)c1c(C)[nH]c(C(=O)OCC(=O)NCCc2ccc(OCC)c(OCC)c2)c1C", "activity change, negative = inhibition": "inactive"},
      {"molecule": "Cc1ccc(-c2nn(-c3ccccc3)cc2C(N)=O)o1", "activity change, negative = inhibition": "inconclusive: 1.88%"},
      {"molecule": "Cc1ccc(OCC(=O)NCCS(=O)(=O)N2CCN(c3ccccc3)CC2)cc1", "activity change, negative = inhibition": "inconclusive: -1.33%"},
      {"molecule": "O=C(O)c1cccc(Nc2ncnc3sccc23)c1", "Potency": "inconclusive: 14.1 µM [falling, partial curve]"},
      {"molecule": "O=C(NC1CCCC1)c1cc2cc(Br)ccc2o1", "Potency": "inconclusive: 12.6 µM [falling, partial curve]"},
      {"molecule": "CCC(CO)[n+]1c(C)cc(/C=C2\\Sc3ccccc3N2Cc2ccccc2)cc1C", "note": "(stereo not drawn)", "activity change, negative = inhibition": "inconclusive: 1.8%"},
      {"molecule": "CN(c1ccccc1)S(=O)(=O)c1ccc(NC(=S)NC(=O)c2ccccc2)cc1", "activity change, negative = inhibition": "inconclusive: 6.9%"},
      {"molecule": "CCc1nc(SCC(=O)NCCc2ccccc2)n[nH]1", "activity change, negative = inhibition": "inconclusive: -1.85%"},
      {"molecule": "COC(=O)CSc1nc(N)c(C#N)c(CC(C)C)c1C#N", "activity change, negative = inhibition": "inconclusive: 0.959%"},
      {"molecule": "Oc1ccccc1O", "Potency": "inconclusive: 29.1 µM [falling, single point]"},
      {"molecule": "O=C(Nc1cccc(C(=O)O)c1)Nc1ccccc1Cl", "Potency": "inconclusive: 35.5 µM [rising, single point]"},
      {"molecule": "O=S(=O)(/N=C(/Nc1ccc(Cl)c(S(=O)(=O)Nc2ccccc2Cl)c1)c1ccc(F)cc1)c1ccccc1", "activity change, negative = inhibition": "inconclusive: -22.9%"},
      {"molecule": "O=C(Nc1nccs1)c1ccc2ccccc2c1", "Potency": "inconclusive: 22.4 µM [falling, single point]"},
      {"molecule": "CCCN(CCC)CC(=O)N1CC(=O)Nc2ccccc21", "activity change, negative = inhibition": "inconclusive: -0.0299%"},
      {"molecule": "CCn1c(=N)c(C(=O)NCc2cccnc2)cc2c(=O)n3cccc(C)c3nc21", "activity change, negative = inhibition": "inactive"},
      {"molecule": "O=C(Nc1ccccc1)c1ccccc1OCC(O)CN1C(=O)c2ccccc2S1(=O)=O", "note": "(stereo not drawn)", "activity change, negative = inhibition": "inconclusive: 4.31%"},
      {"molecule": "C#CCn1c(=NC(=O)c2ccc(Br)s2)sc2cc(NC(C)=O)ccc21", "activity change, negative = inhibition": "inactive"},
      {"molecule": "COc1ccc(NC(=O)c2ccc(S(=O)(=O)N3CCCCCC3)cc2)c(OC)c1", "activity change, negative = inhibition": "inconclusive: -10.5%"},
      {"molecule": "Cc1ccc(NC(=O)C2CCCN(S(=O)(=O)c3c(C)noc3C)C2)c(Br)c1", "note": "(stereo not drawn)", "activity change, negative = inhibition": "inactive"},
      {"molecule": "CN1CCc2c(c3ccccc3n2C)C1", "activity change, negative = inhibition": "inconclusive: 3.99%"},
      {"molecule": "CN(CCC#N)C(=O)CSc1nnc(-c2c[nH]c3ccccc23)o1", "activity change, negative = inhibition": "inactive"},
      {"molecule": "COc1ccccc1-c1nnc(Nc2nc3c(OC)cccc3s2)o1", "activity change, negative = inhibition": "inconclusive: 211% [cytotoxic]"},
      {"molecule": "Cc1ccc(SCC(=O)N2CCC(C(N)=O)CC2)cc1", "activity change, negative = inhibition": "inconclusive: 9.77%"},
      {"molecule": "O=C(NCc1cccs1)Nc1ccc2c(c1)OCO2", "Potency": "inconclusive: 16.4 µM [falling, partial curve]"},
      {"molecule": "O=C(CCC(=O)Nc1ccc(Cl)cc1Cl)N/N=C/c1ccc([N+](=O)[O-])o1", "activity change, negative = inhibition": "inactive"},
      {"molecule": "CCOC(=O)C1=C(C)NC(=O)NC1C", "note": "(stereo not drawn)", "activity change, negative = inhibition": "inconclusive: 5.21%"},
      {"molecule": "Cc1ccc(CCNC(=O)C2=CCN(S(=O)(=O)c3ccccc3)CC2)cc1", "activity change, negative = inhibition": "inconclusive: 2.69%"},
      {"molecule": "CCn1c(-c2ccccc2Cl)nn(CC(=O)Nc2cc(Cl)ccc2Cl)c1=S", "activity change, negative = inhibition": "inconclusive: 17.5%"},
      {"molecule": "Cc1ccc(N2CC(C(=O)Nc3ccc4c(c3)OCO4)CC2=O)cc1", "note": "(stereo not drawn)", "activity change, negative = inhibition": "inconclusive: 1.1%"},
      {"molecule": "Cc1ccc(OC(=O)c2ccc(S(=O)(=O)N(C)C)cc2)c(-n2nc3ccccc3n2)c1", "activity change, negative = inhibition": "inactive"},
      {"molecule": "CCCc1ccc(Oc2cc(Cl)nc(N)n2)cc1", "activity change, negative = inhibition": "inconclusive: 4.24%"},
      {"molecule": "Cc1ccc2c(c1)-n1c(nc3cc(Cl)ccc3c1=O)C(CC(C)C)NC2=O", "note": "(stereo not drawn)", "activity change, negative = inhibition": "inactive"},
      {"molecule": "CCn1nnnc1-c1ccc(OC)c(S(=O)(=O)Nc2ccc(C)c(C)c2)c1", "activity change, negative = inhibition": "inactive"},
      {"molecule": "O=[N+]([O-])c1ccc(CSc2nc3ccccc3o2)cc1", "activity change, negative = inhibition": "inconclusive: 5.79%"},
      {"molecule": "O=C(Nn1cnnc1)c1cccc(S(=O)(=O)N2CCOCC2)c1", "Potency": "inconclusive: 8.91 µM [falling, partial curve]"},
      {"molecule": "Cc1ccccc1-c1nnn(CC(=O)NC(=O)NC2CCCC2)n1", "Potency": "inconclusive: 20.6 µM [falling, partial curve, poor fit]"},
      {"molecule": "O=C(NC(=S)NNC(=O)c1ccco1)c1ccc(F)cc1", "Potency": "inconclusive: 22.4 µM [falling, single point]"},
      {"molecule": "CCc1ccc(NC(=O)CSCc2nc(N)nc(Nc3ccccc3CC)n2)cc1", "Potency": "inconclusive: 14.6 µM [falling, partial curve, poor fit]"},
      {"molecule": "O=C(NCCN1C(=O)S/C(=C\\c2cccnc2)C1=O)c1cccc(OC(F)F)c1", "Potency": "inconclusive: 16.4 µM [falling, partial curve, poor fit]"},
      {"molecule": "O=C(CSc1ccccc1)N[C@@H](Cc1ccccc1)C(=O)O", "activity change, negative = inhibition": "inconclusive: 11.3%"},
      {"molecule": "CC(C)(C)c1[nH]nc2c1C(c1ccco1)C(C#N)=C(N)O2", "note": "(stereo not drawn)", "activity change, negative = inhibition": "inconclusive: -3.09%"},
      {"molecule": "C/C(=N\\NC(=O)c1cc(-c2ccc(O)cc2)nc2ccccc12)c1cccnc1", "activity change, negative = inhibition": "inconclusive: -3.21%"},
      {"molecule": "Cn1cc(C(=O)Nc2ccc(F)c(Cl)c2)cn1", "activity change, negative = inhibition": "inconclusive: 3.43%"},
      {"molecule": "O=C(c1ccco1)N1CCN(Cc2ccc(Cl)cc2)CC1", "activity change, negative = inhibition": "inconclusive: 17%"},
      {"molecule": "COC(=O)C(NC(=O)c1ccccc1)(Nc1nc(C)cs1)C(F)(F)F", "note": "(stereo not drawn)", "activity change, negative = inhibition": "inconclusive: -0.3%"},
      {"molecule": "CCc1nnc(NS(=O)(=O)c2ccc(Nc3ccc([N+](=O)[O-])c4nonc34)cc2)s1", "Potency": "inconclusive: 11.2 µM [rising, partial curve, poor fit]"},
      {"molecule": "C=CCc1cccc2cc(C(=O)NCc3cccnc3)c(=O)oc12", "activity change, negative = inhibition": "inconclusive: -0.721%"},
      {"molecule": "Cc1cccc(NC(=O)c2sc3nc4n(c(=O)c3c2C)N=C(c2ccc(F)cc2)CS4)c1C", "activity change, negative = inhibition": "inactive"}
    ]}
  ]
}
